{"source": "PubChem BioAssay AID602196 (INSERM, 2012)", "assay": "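Modifiers of cisplatin sensitivity in A549 cells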", "system": "human A549 lung cancer cells", "reagent": "siRNA pair against human genes", "timing": "48 h transfection before cisplatin; time from cisplatin to read-out not stated", "treatment": "cisplatin at a dose killing half of control-siRNA cells; exact dose and duration not given", "measured": "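Cisplatin cell death as a shift from the 50% death seen with control siRNA; siRNAs toxic or growth-blocking alone scored 0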", "reading the numbers": "two-siRNA summed score (-2 to +2): higher = both siRNAs protect from cisplatin killing; -2 means both sensitise", "hit rule": "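siRNAs harmful alone (LDH or WST-1) get 0; others get +1 for less and -1 for more cisplatin killing; genes are active when the two siRNAs give the same sign, summing to ±2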", "calls": "active = both siRNAs shift cisplatin killing the same way; inactive = no consistent shift, or siRNA harmful alone", "note": "Shown is a random part of about 23,000 reagents tested. 455 of them (2%) were called active. 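Active includes both protection and sensitisation; some change values fall well beyond the stated -50 to +50 range.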 Entries without a mark were called inactive. Not all columns of the deposit are shown. The record does not give: the amount of reagent."}
{"Target gene": "PNOC (prepronociceptin)", "two-siRNA summed score (-2 to +2)": 0}
{"Target gene": "LOC400572", "two-siRNA summed score (-2 to +2)": 0}
{"Target gene": "LOC101928906", "two-siRNA summed score (-2 to +2)": 0}
{"Target gene": "ARL4AP1 (ARF like GTPase 4A pseudogene 1)", "two-siRNA summed score (-2 to +2)": "2 (active)"}
{"Target gene": "LCE5A (late cornified envelope 5A)", "two-siRNA summed score (-2 to +2)": 0}
{"Target gene": "PAM16 (presequence translocase associated motor 16)", "two-siRNA summed score (-2 to +2)": 0}
{"Target gene": "CFAP44 (cilia and flagella associated protein 44)", "two-siRNA summed score (-2 to +2)": 0}
{"Target gene": "TIGAR (TP53 induced glycolysis regulatory phosphatase)", "two-siRNA summed score (-2 to +2)": 0}
{"Target gene": "SNRK (SNF related kinase)", "two-siRNA summed score (-2 to +2)": 1}
{"Target gene": "NBR2 (neighbor of BRCA1 lncRNA 2)", "two-siRNA summed score (-2 to +2)": 0}
{"Target gene": "SDCCAG8 (SHH signaling and ciliogenesis regulator SDCCAG8)", "two-siRNA summed score (-2 to +2)": 1}
{"Target gene": "PFN1 (profilin 1)", "two-siRNA summed score (-2 to +2)": -1}
{"Target gene": "PLK4 (polo like kinase 4)", "two-siRNA summed score (-2 to +2)": 0}
{"Target gene": "TMEM125 (transmembrane protein 125)", "two-siRNA summed score (-2 to +2)": 0}
{"Target gene": "CD6 (CD6 molecule)", "two-siRNA summed score (-2 to +2)": 0}
{"Target gene": "DPPA3 (developmental pluripotency associated 3)", "two-siRNA summed score (-2 to +2)": 0}
{"Target gene": "COMMD4 (COMM domain containing 4)", "two-siRNA summed score (-2 to +2)": -1}
{"Target gene": "MTPN (myotrophin)", "two-siRNA summed score (-2 to +2)": 1}
{"Target gene": "LOC128629", "two-siRNA summed score (-2 to +2)": 0}
{"Target gene": "CCNJ (cyclin J)", "two-siRNA summed score (-2 to +2)": 0}
{"Target gene": "ATP5MC1 (ATP synthase membrane subunit c locus 1)", "two-siRNA summed score (-2 to +2)": 1}

Reprinted from the listing for reference:
{"Target gene": "MTPN (myotrophin)", "two-siRNA summed score (-2 to +2)": 1}
{"Target gene": "LOC128629", "two-siRNA summed score (-2 to +2)": 0}
